The values below come from patent publication US20120172578A1 (VLAAMS INTERUNIVERSITAIR INSTITUUT VOOR BIOTECHNOLOGIE, published 2012).

Sequences of proteins named here, by UniProt entry; tags and fusion partners are left off. Residues count along the entry.
UniProt P01012, residues 2-386: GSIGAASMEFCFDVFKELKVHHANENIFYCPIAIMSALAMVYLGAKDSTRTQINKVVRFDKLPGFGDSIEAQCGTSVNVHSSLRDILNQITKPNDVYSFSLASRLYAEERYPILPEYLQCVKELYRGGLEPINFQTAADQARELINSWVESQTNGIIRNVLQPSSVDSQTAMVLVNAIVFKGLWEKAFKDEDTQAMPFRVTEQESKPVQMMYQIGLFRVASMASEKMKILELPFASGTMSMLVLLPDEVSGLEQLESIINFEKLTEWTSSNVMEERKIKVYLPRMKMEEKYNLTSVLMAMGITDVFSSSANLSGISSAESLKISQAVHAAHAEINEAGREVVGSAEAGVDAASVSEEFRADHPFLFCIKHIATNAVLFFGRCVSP

No constants are given. Whether binding was seen depends on the method and setting. Some binding calls cover weakened binding; strength is not graded here.

For assay [1], the target named is ovalbumine (UniProt P01012). The assay can be described thus: column 'Antigen recognized by antibody'.
The target of assay [2] is ovalbumine (UniProt P01012). The assay can be described thus: phage display panning; evaluated in ELISA. (An ELISA detects its analyte on a solid surface through an enzyme-linked reagent.)

B1: 1DBOVA23 (VHH)
VHH: QVQLVESGGGSVQAGGSLIISCAASGFDFSNNYMTWVRQAPGKGVEWVSGISVSGSITHYTDSVKGRFTISRDNAKNTLYLQMNSLRSEDTARYYCGTGGYGRYYGTLGQGTQVTVSS
Take B1: the binding entry in assay [1] and in assay [2] was “binds” in each case.

B2: 1DBOVA43 (VHH)
VHH: QVQLVESGGGLVQPGGSLRLSCVGSGFTFSSYYISWVRQAPGKGLEWVSGISGSGATTSYTDSVKGRFTISRDNAKNTVYLQLNSLETEDSAMYYCRLGYGTPPGGVWPSQRQGTQVTVSS
As to B2, the binding entry in assay [1] and in assay [2] was “binds” in each case.

B3: A2-19 (VHH)
VHH: QVQLQASGGGLVQPGGSLKLSCVVSGFLFSNYAFSWVRQAPGKGLEWVSTIGTSSGYTNYAPSVKGRFTISRDNAKNTVYLQLNSLKTEDTAMYYCRRPGTDERGQGTQVTVSS
For B3, the binding result in assay [1] and in assay [2] was “binds” in each case.

B4: B368 (VHH)
VHH: VQLVESGGGSVQAGGSLILSCTASGLPYKSYCMGWFRQAAGKEPEGVATINSGTGSKFYTDSVKGRFTISLDNDNNRVYLEMSSLKPEDTATYYCAAGQRHSCGYVLKNTDGWTHRAQGTQVTVSS
As for B4, the binding entry in assay [1] and in assay [2] was “binds” each time.

B5: B13 (VHH)
VHH: QVQLQASGGGLVQPGGSLRLSCAASGFDFMNVYMTWVRQAPGKGVEWVSGISVSGSITHYSESVKGRFTISRDNAKNMLYLQMNSLKSEDTARYYCARGGYNRYYGALGQGTLVTVSS
In the case of B5, the binding result in assay [1] and in assay [2] was “binds” throughout.

B6: A4-17 (VHH)
VHH: QVQLQASGGGLVQPGGSLRLSCAASGFDFSNVYMTWVRQAPGKGVEWVSGISVSGSITHYSDSVKDRFTISRDNAKNTLYLQMNSLKSEDTARYYCARGGYNTYSGALGQGTQVTVSS
Regarding B6, the binding result in assay [1] and in assay [2] was “binds” throughout.
